In assay [1] the target is TrxC C40S (M. tuberculosis) (UniProt P9WG67). Put plainly: affinity purification with mass spectrometry; only the target purified.
For assay [2], the target named is T1, NrdH C14S (M. tuberculosis) (UniProt A5U767).
T1 sequence: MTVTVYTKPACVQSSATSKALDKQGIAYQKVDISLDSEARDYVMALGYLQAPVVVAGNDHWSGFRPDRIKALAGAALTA
The assay is described as above.

Sequences of proteins named here, by UniProt entry; tags and fusion partners are left off. A change or cut given only in a name is not applied to a line headed by its entry.
UniProt P9WG67, whole entry, looked up, stated change not applied: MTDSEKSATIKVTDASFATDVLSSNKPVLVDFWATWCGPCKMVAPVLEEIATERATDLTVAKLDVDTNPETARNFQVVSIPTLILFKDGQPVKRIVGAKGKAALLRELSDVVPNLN

These are yes or no findings as the source states them, for the method shown. In cells and extracts the contact can be indirect. Here binding means that the protein was enriched with, or labelled near, the bait; the list need not be complete. For part of these data: No binding means not detected with the bait.

Consider DosR (from UniProt P9WMF9 1-217), for which the binding result in assay [1] is reported as “binds”. Regarding IdeR (from UniProt P9WMH1 1-230), the binding entry in assay [2] is given as “binds”. In the case of “NrdE (from UniProt P9WH75 1-725) (enzyme)”, the binding result is “no binding” in assay [2] and “binds” in assay [1]. Regarding “Putative thiosulfate sulfurtransferase (CysA1) (from UniProt P9WHF9 1-277) (enzyme)”, the binding entry in assay [2] and in assay [1] was “binds” throughout.

(Values after PMC10371808.)
